Data as given in PubChem BioAssay AID1224828 (NIAID, 2016).
The deposit covers about 17,000 reagents; this is a random part of them. 762 of all reagents (4.5%) were called active. 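Active calls include both raised and lowered p65 entry, mostly lowered; wells with fewer than 50 cells lack a z-score.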 Raw values vary from plate to plate and are shown uncorrected.

Assay: 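Regulators linking TLR4 signalling to p65 nuclear translocation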 (primary screen)
Cells: mouse RAW264.7 G9 macrophage reporter cells (GFP-p65, Tnf promoter-mCherry)
Reagent: siRNA pool against mouse genes, 100 nM
Duration: 2 days siRNA transfection, then 40 min LPS before fixation
Conditions: LPS (Salmonella minnesota R595) at 10 ng/ml
Read-out: 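Imaged p65 nuclear translocation ratio, normalised to the plate median, converted to robust z-scores and averaged across two replicates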
Reading the numbers: p65 translocation robust z-score: higher = more nuclear NF-kappaB p65 after LPS than the plate median; nuclear/cytoplasmic p65 ratio: higher = more nuclear NF-kappaB p65
Hit rule: 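Called active when z exceeds 3.3 or falls under -1.56 (median of Tlr4 controls), giving activity score of at least 50; no calls for control wells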
Calls: active = hit (p65 shift raised or lowered); inactive = no clear change

With knock-down of Mvp the results were p65 translocation robust z-score -0.37; nuclear/cytoplasmic p65 ratio, rep 1 = 1.69; nuclear/cytoplasmic p65 ratio, rep 2 = 1.56; low cell count flag enough cells to score; inactive.
For Cdc25b, the entry reads p65 translocation robust z-score -0.11; nuclear/cytoplasmic p65 ratio, rep 1 = 1.38; nuclear/cytoplasmic p65 ratio, rep 2 = 1.42; low cell count flag enough cells to score; inactive.
Silencing of Gng5 gave: p65 translocation robust z-score 0.63; nuclear/cytoplasmic p65 ratio, rep 1 = 1.76; nuclear/cytoplasmic p65 ratio, rep 2 = 1.62; low cell count flag enough cells to score; inactive.
With knock-down of Olfml2a the results were nuclear/cytoplasmic p65 ratio, rep 1 = 1.01; nuclear/cytoplasmic p65 ratio, rep 2 = 1.2; low cell count flag fewer than 50 cells per well; well left out of scoring; inactive.
Against Capza1b the deposit lists p65 translocation robust z-score 0.04; nuclear/cytoplasmic p65 ratio, rep 1 = 1.24; nuclear/cytoplasmic p65 ratio, rep 2 = 1.31; low cell count flag enough cells to score; inactive.
Gucy1b1 scored p65 translocation robust z-score 0.89; nuclear/cytoplasmic p65 ratio, rep 1 = 1.59; nuclear/cytoplasmic p65 ratio, rep 2 = 1.45; low cell count flag enough cells to score; inactive.
Against Spn, the entry reads p65 translocation robust z-score -0.82; nuclear/cytoplasmic p65 ratio, rep 1 = 1.42; nuclear/cytoplasmic p65 ratio, rep 2 = 1.45; low cell count flag enough cells to score; inactive.
Depletion of Cps1 came out at: p65 translocation robust z-score 0.26; nuclear/cytoplasmic p65 ratio, rep 1 = 1.53; nuclear/cytoplasmic p65 ratio, rep 2 = 1.4; low cell count flag enough cells to score; inactive.

A portion of the results above, for reference:
Mvp | p65 translocation robust z-score: -0.37; nuclear/cytoplasmic p65 ratio, rep 1: 1.69; nuclear/cytoplasmic p65 ratio, rep 2: 1.56; low cell count flag: enough cells to score; activity call: inactive
Cdc25b | p65 translocation robust z-score: -0.11; nuclear/cytoplasmic p65 ratio, rep 1: 1.38; nuclear/cytoplasmic p65 ratio, rep 2: 1.42; low cell count flag: enough cells to score; activity call: inactive

Further reagents:
Eps8l2 showed p65 translocation robust z-score 1.42; nuclear/cytoplasmic p65 ratio, rep 1 = 1.63; nuclear/cytoplasmic p65 ratio, rep 2 = 1.82; low cell count flag enough cells to score; inactive.
After knock-down of Appbp2, the record shows p65 translocation robust z-score -0.23; nuclear/cytoplasmic p65 ratio, rep 1 = 1.54; nuclear/cytoplasmic p65 ratio, rep 2 = 1.63; low cell count flag enough cells to score; inactive.
Against Or5an10, the values are p65 translocation robust z-score 1.57; nuclear/cytoplasmic p65 ratio, rep 1 = 1.84; nuclear/cytoplasmic p65 ratio, rep 2 = 1.63; low cell count flag enough cells to score; inactive.
Against E2f4, the entry reads p65 translocation robust z-score -0.88; nuclear/cytoplasmic p65 ratio, rep 1 = 1.35; nuclear/cytoplasmic p65 ratio, rep 2 = 1.27; low cell count flag enough cells to score; inactive.
